# Assay results: the supplement of paper PMC12067093, “Discovery and optimisation of a covalent ligand for TRIM25 and its application to targeted protein ubiquitination” (Chemical Science, 2025)
# Chains of the proteins cited; added tags and fusions are not shown. Lines headed by an entry give the natural chain unless they say otherwise; changes in a name come on top.
# UniProt Q9BT23: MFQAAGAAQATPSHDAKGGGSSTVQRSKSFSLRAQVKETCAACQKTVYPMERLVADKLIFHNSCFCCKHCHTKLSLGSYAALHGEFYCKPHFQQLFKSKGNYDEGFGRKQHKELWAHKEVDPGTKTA
# UniProt Q8N149: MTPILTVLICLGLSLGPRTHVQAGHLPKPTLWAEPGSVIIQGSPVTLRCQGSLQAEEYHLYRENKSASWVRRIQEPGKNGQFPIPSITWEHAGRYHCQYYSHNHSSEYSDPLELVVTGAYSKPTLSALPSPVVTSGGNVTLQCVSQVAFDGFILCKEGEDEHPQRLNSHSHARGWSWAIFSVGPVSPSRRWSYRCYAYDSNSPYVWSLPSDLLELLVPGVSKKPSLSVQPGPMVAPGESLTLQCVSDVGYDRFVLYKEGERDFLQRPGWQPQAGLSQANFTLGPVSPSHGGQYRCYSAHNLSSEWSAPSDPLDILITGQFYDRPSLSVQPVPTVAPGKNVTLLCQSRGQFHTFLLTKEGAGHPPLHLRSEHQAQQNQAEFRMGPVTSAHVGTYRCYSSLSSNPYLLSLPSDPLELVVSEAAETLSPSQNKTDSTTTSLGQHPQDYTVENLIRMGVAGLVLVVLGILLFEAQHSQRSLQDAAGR
# UniProt P20700: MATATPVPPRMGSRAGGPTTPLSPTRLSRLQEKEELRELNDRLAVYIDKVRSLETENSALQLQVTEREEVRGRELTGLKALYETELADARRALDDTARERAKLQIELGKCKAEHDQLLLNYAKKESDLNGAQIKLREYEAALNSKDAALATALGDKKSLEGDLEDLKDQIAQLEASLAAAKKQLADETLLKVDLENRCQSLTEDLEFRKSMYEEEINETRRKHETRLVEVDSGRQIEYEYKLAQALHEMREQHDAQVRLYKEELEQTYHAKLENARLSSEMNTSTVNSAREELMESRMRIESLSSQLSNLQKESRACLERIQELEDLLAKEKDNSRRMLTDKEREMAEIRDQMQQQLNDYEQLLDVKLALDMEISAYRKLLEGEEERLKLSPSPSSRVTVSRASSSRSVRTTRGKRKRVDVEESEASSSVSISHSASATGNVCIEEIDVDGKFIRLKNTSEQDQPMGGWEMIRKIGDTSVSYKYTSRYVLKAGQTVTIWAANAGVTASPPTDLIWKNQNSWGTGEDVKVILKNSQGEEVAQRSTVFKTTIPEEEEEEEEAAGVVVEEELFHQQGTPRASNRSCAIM
# UniProt Q3MHD2: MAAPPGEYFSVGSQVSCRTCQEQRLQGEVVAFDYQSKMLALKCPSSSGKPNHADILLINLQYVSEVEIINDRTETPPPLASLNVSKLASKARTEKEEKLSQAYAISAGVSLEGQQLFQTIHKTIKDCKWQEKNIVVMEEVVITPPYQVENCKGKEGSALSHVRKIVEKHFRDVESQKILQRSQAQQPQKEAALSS
# UniProt P48059, whole entry, looked up: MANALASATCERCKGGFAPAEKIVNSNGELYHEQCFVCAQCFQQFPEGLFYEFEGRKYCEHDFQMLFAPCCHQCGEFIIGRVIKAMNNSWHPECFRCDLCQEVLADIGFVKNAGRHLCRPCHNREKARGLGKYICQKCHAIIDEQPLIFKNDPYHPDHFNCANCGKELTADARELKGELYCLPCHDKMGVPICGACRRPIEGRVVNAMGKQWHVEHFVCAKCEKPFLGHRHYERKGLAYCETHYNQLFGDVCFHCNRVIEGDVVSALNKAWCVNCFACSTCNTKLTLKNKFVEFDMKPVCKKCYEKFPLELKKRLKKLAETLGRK
# UniProt Q96L50: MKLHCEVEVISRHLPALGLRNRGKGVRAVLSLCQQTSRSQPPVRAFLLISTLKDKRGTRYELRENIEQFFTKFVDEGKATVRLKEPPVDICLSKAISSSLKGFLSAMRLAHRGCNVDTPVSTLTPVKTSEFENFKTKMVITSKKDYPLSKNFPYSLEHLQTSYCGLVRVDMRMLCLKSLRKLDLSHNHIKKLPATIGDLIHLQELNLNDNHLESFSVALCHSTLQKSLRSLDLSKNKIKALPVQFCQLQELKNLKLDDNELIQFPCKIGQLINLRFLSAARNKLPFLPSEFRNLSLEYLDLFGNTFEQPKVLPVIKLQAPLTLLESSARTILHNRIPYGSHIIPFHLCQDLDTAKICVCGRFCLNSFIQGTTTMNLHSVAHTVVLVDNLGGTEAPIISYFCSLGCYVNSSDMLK
# UniProt Q93052: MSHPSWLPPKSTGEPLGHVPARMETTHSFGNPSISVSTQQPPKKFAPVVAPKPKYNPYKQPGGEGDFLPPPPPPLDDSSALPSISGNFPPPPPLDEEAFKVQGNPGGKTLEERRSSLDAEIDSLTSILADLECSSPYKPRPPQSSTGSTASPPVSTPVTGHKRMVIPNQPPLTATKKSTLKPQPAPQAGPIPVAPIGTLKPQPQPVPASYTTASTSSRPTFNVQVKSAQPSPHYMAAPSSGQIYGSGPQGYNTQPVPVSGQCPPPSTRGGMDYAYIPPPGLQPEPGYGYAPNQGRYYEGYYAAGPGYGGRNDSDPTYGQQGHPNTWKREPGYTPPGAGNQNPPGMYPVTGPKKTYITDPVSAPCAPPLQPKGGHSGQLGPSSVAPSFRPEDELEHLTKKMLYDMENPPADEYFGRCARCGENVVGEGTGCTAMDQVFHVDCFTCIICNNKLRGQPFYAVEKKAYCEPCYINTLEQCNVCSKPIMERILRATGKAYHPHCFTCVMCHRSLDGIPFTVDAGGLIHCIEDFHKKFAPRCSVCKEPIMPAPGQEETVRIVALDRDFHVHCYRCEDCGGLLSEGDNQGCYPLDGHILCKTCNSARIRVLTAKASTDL
# UniProt O00453: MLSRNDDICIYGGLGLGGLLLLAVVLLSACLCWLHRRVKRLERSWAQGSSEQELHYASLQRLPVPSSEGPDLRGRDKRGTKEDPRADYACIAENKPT
# UniProt P49916: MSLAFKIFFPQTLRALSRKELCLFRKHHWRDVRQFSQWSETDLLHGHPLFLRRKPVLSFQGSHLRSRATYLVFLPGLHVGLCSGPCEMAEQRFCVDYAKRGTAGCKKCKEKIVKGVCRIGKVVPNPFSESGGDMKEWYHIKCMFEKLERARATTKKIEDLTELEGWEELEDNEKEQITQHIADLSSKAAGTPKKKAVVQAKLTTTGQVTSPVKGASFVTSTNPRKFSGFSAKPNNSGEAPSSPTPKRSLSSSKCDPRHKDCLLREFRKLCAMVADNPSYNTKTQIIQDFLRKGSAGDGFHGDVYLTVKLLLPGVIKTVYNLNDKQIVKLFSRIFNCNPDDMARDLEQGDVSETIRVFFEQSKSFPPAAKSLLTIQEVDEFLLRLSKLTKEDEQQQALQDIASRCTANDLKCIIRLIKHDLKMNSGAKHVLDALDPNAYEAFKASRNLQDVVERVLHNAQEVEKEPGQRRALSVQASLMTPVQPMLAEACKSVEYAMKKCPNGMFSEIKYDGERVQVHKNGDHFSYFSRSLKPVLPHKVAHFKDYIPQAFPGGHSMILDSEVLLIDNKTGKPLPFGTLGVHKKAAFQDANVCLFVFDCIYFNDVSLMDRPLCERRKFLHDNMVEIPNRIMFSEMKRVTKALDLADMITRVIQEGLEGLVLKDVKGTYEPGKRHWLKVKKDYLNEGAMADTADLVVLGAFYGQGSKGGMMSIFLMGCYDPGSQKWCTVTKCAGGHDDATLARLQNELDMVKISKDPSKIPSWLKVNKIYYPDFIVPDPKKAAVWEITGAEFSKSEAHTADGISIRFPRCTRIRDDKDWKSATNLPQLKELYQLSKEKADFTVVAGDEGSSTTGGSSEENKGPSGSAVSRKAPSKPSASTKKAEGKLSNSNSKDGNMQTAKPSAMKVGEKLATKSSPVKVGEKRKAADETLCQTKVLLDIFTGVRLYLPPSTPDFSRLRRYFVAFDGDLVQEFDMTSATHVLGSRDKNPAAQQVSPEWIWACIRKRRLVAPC
# UniProt Q6P1M3: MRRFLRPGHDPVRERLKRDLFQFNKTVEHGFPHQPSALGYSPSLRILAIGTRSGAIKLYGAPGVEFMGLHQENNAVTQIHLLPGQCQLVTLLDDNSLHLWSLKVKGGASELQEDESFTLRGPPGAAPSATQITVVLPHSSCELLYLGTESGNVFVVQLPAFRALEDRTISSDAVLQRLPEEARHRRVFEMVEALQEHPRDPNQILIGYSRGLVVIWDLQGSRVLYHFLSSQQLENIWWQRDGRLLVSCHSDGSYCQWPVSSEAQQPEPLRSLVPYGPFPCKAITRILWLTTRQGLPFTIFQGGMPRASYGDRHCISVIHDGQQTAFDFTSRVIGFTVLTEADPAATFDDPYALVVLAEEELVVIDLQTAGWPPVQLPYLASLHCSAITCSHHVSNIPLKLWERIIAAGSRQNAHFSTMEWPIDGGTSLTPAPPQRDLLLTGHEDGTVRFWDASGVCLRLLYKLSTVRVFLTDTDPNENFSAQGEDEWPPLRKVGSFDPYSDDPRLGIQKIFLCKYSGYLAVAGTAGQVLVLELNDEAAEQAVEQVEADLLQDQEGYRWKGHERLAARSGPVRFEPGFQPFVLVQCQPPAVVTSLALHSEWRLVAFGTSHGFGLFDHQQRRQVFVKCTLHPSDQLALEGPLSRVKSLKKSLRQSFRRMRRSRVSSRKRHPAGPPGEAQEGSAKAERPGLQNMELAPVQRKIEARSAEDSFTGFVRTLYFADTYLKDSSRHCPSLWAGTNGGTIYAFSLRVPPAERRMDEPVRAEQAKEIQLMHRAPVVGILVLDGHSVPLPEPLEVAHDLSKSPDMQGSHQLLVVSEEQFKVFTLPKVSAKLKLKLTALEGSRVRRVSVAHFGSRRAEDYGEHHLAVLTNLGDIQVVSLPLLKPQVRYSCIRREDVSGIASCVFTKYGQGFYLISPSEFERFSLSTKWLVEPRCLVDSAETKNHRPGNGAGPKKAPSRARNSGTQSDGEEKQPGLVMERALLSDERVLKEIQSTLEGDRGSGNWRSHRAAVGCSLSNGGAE
# UniProt Q12912: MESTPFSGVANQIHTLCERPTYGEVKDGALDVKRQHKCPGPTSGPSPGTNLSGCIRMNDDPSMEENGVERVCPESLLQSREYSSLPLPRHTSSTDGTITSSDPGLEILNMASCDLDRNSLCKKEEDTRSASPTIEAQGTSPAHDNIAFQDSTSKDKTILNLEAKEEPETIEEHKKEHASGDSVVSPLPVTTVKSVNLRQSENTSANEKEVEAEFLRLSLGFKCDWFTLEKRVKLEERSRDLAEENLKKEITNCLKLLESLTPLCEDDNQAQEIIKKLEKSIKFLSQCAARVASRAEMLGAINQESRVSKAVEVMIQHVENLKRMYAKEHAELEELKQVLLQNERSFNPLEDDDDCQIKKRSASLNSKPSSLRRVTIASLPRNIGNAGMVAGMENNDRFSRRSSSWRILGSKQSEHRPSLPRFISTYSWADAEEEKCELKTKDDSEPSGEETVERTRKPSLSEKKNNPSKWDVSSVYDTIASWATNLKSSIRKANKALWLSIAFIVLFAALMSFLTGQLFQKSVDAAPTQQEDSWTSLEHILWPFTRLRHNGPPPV
# UniProt Q96AG4: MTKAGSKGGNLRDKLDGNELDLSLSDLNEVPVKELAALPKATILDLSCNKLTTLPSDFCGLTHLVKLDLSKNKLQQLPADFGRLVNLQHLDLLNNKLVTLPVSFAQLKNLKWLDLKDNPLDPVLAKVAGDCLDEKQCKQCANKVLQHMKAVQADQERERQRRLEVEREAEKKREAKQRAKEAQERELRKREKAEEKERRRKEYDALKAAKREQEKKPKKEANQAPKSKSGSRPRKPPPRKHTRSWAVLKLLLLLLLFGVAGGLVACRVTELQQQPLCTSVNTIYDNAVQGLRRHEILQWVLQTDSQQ
# UniProt Q9Y608: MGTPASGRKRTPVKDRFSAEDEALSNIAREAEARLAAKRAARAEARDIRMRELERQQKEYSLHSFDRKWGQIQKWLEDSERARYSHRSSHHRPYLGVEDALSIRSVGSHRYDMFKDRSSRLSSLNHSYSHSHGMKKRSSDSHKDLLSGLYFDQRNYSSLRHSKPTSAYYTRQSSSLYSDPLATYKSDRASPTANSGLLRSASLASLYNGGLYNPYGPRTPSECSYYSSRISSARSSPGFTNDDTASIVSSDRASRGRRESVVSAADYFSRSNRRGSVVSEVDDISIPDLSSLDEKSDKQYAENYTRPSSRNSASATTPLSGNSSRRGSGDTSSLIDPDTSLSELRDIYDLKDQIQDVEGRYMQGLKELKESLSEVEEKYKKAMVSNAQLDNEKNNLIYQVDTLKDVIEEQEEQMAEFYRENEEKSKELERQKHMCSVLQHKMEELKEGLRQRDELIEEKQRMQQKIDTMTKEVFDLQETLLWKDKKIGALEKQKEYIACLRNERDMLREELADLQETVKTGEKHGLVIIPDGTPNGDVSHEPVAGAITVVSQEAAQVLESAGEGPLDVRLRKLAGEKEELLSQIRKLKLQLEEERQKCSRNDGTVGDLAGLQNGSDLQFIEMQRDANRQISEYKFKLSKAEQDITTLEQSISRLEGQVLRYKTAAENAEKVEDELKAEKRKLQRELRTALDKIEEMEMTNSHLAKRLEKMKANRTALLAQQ
# UniProt P09382, whole entry, looked up: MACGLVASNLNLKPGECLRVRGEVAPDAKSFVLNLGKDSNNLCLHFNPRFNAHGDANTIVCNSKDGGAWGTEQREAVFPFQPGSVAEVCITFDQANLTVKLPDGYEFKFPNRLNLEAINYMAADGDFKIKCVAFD
# Some of the results follow.
# Compound: CC1Cc2ccccc2N1C(=O)C1CCCN(C1)C(=O)CCl (mixture of isomers) [TRIM25 ligand 11 (diastereomer mixture)]
# Assay: probe-labelled cysteine peptide fold change vs DMSO (competition) (log2 fold change); higher = less target engagement (more negative = stronger competition)
# Conditions: THP-1, incubation time: 4 h
# 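Further: competitive chemoproteomic profiling in live THP-1 cells with an iodoacetamide desthiobiotin (IA-DTB) probe, comparing probe-labelled peptide intensities in compound-treated cells against DMSO-treated controls.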
Target,probe-labelled cysteine peptide fold change (10 µM),probe-labelled cysteine peptide fold change (50 µM)
LRRC47_Q8N1G4_450_YLHLLDGNENYPCLVDADGDVISFPPITNSEK (UniProt Q8N1G4),-0.36,-0.3
LIMD2_Q9BT23_43_ETCAACQK (UniProt Q9BT23),0.141,-0.0114
LIMA1_Q9UHB6_164_MENCLGESR (UniProt Q9UHB6),-0.0922,0.185
LILRA2_Q8N149_49_CQGSLQAEEYHLYR (UniProt Q8N149),-0.0373,-0.0351
LMNB1_P20700_110_CKAEHDQLLLNYAK (UniProt P20700),-0.194,-0.0591
LPXN_O60711_152+155_GHCASCQKPIAGK (UniProt O60711),-0.173,-0.355
LRRC47_Q8N1G4_367_LHEDLCEK (UniProt Q8N1G4),-0.0914,-0.182
LSM12_Q3MHD2_17_AAPPGEYFSVGSQVSCR (UniProt Q3MHD2),-0.0369,0.0976
LIMS1_P48059_240+252_GLAYCETHYNQLFGDVCFHCNR (UniProt P48059),0.163,0.197
LGALS9_O00182_259_FHINLCSGNHIAFHLNPR (UniProt O00182),-0.18,-0.0929
LIMS1_P48059_161+164_NDPYHPDHFNCANCGK (UniProt P48059),0.0151,0.0736
LIMS1_P48059_252_GLAYCETHYNQLFGDVCFHCNR (UniProt P48059),0.00679,0.0944
LIPA_P38571_209_MFFALGPVASVAFCTSPMAK (UniProt P38571),0.0202,0.132
LRR1_Q96L50_5_LHCEVEVISR (UniProt Q96L50),0.141,0.204
LSS_P48449_636_QMADGGWGEDFESCEERR (UniProt P48449),-0.0668,-0.1
LPP_Q93052_502_AYHPHCFTCVMCHR (UniProt Q93052),0.0432,0.142
LST1_O00453_90_ADYACIAENKPT (UniProt O00453),-0.052,-0.071
LRPPRC_P42704_721+722_AKYESDMVTGGYAALINLCCR (UniProt P42704),-0.00502,-0.101
LIG3_P49916_499_KCPNGMFSEIKYDGER (UniProt P49916),0.24,0.59
LEO1_Q8WVC0_530_ILPMAGRDPECQR (UniProt Q8WVC0),-0.0888,-0.149
LPIN1_Q14693_843_LCEVVDHVFPLLK (UniProt Q14693),-0.0275,0.0716
LRRC57_Q8N9N7_128_TLSLSGNQLGALPPQLCSLR (UniProt Q8N9N7),0.294,0.14

Target,probe-labelled cysteine peptide fold change (10 µM),probe-labelled cysteine peptide fold change (50 µM)
LSM7_Q9UK45_76_QLGLVVCR (UniProt Q9UK45),-0.069,0.165
LSS_P48449_616_ACDFLLSR (UniProt P48449),0.0702,-0.00256
LMAN2_Q12907_107_EGSIWNHQPCFLK (UniProt Q12907),0.0524,-0.0598
LSS_P48449_410_MQGTNGSQIWDTAFAIQALLEAGGHHRPEFSSCLQK (UniProt P48449),0.135,0.467
LLGL2_Q6P1M3_280_SLVPYGPFPCK (UniProt Q6P1M3),0.0313,0.0411
LIG4_P49917_855_VVSCLAEGVSHVIIGEDHSR (UniProt P49917),-0.00498,-0.031
LRPPRC_P42704_863_IHDVLCK (UniProt P42704),0.029,-0.0148
LRMP_Q12912_355_SFNPLEDDDDCQIK (UniProt Q12912),-0.202,-0.168
LRRC40_Q9H9A6_23_DCGTSVPQGLLK (UniProt Q9H9A6),0.0344,-0.167
LRRC59_Q96AG4_59_LTTLPSDFCGLTHLVK (UniProt Q96AG4),-0.0457,-0.245
LRRFIP2_Q9Y608_435_HMCSVLQHK (UniProt Q9Y608),-0.0488,-0.191
LONP2_Q86WA8_405_IALGGVCDQSDIR (UniProt Q86WA8),0.166,0.188
LENG8_Q96PV6_643_GDHEEFNQCQTQLK (UniProt Q96PV6),0.132,0.0994
LPP_Q93052_566_DFHVHCYR (UniProt Q93052),0.0515,0.134
LONP1_P36776_909_AGVTCIVLPAENKK (UniProt P36776),-0.204,-0.00337
LIG3_P49916_499_KCPNGMFSEIK (UniProt P49916),-0.139,-0.327
LIMK1_P53667_466_DLNSHNCLVR (UniProt P53667),0.0104,0.0471
LDLR_P01130_377_CQCEEGFQLDPHTK (UniProt P01130),0.0779,0.0753
LSM2_Q9Y333_26_DVVVELKNDLSICGTLHSVDQYLNIK (UniProt Q9Y333),-0.265,-0.208
LGALS1_P09382_3+17_ACGLVASNLNLKPGECLR (UniProt P09382),-0.114,-0.236
LGALS1_P09382_43_DSNNLCLHFNPR (UniProt P09382),-0.135,-0.037
